Record: PubChem BioAssay AID652259 (Drosophila RNAi Screening Center, 2013)
Screen: 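Genome-wide hunt for genes that control Wingless pathway activity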 (primary screen). System: Drosophila clone 8 imaginal disc epithelial cells. Reagents: long dsRNA against Drosophila genes. Treatment: pathway stimulated by co-transfected Wingless expression plasmid. Read-out: 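Firefly luciferase from a tcf-site Wingless reporter, measured alongside co-transfected Renilla luciferase that tracks transfection; pathway stimulated by a Wingless plasmid; the firefly-to-Renilla ratio is not deposited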. Scale: firefly reporter light: higher = more Wg reporter light, before normalisation; Renilla control light: higher = more transfected or surviving cells. Rule for the call: 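Strong candidates differ from their plate mean by at least two out of four per-plate statistical tests; weak candidates meet just one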. Meaning of the calls: active = candidate regulator (raises or lowers reporter); inactive = not a candidate.
The deposit covers about 22,000 reagents; shown is an unselected part of those that have a named target and a result. In the full data, 233 (1.1%) got an active call. 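Light values are raw, unnormalised plate reads; the ratio scores behind the reporter calls were not deposited.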 Names joined by + are all predicted targets of the reagent. Not stated in the record: the amount of reagent, the time to read-out, the dose of the treatment.

Gene,dsRNA,"reporter change call, replicate 1","firefly reporter light, replicate 1","firefly reporter light, replicate 2","Renilla control light, replicate 1","Renilla control light, replicate 2",Outcome
to,DRSC17086,,21382,,18597,,inactive
JMJD4,DRSC03025,,17732,,6177,,inactive
CG42869 + Sfp93F,DRSC13505,,3608,,336,,inactive
Cyp6d5,DRSC16634,,3969,,1325,,inactive
RpL18,DRSC11016,,1643,7046,1080,3322,inactive
RpL18,DRSC22323,,5.80e5,7.00e5,1.43e5,1.43e5,inactive
HINT1,DRSC00548,,2833,4429,1064,1780,inactive
CG1889,DRSC18195,,3815,10294,1132,2909,inactive
pigeon,DRSC03565,,5737,,1856,,inactive
CG3226,DRSC18296,,3654,10963,1129,4115,inactive
CG8927,DRSC16458,,13864,,2786,,inactive
mub,DRSC11896,,5997,,3152,,inactive
CG18764,DRSC15391,,17922,,3761,,inactive
Kua,DRSC02100,,4723,10194,929,3170,inactive
Gorab,DRSC10383,,8390,,3125,,inactive
CG33269,DRSC10585,,5045,,2298,,inactive
Mad1,DRSC07561,,9693,,2765,,inactive
CG10822,DRSC06005,,5077,,1299,,inactive
NPF,DRSC17019,,15669,,3939,,inactive
CSN6,DRSC16593,,18668,,10512,,inactive
Npl4,DRSC15615,,3863,8252,909,2484,inactive
Npl4,DRSC15616,,13531,,14694,,inactive
CG31223,DRSC15115,,2250,6509,985,1409,inactive
Cdk5alpha,DRSC03290,,2345,6320,715,2816,inactive
yip2,DRSC03640,,2724,4549,810,2131,inactive
Rh7,DRSC10529,,4868,,2294,,inactive
Rbp6,DRSC09456,,3609,,1243,,inactive
Rbp6,DRSC09462,,4235,,1276,,inactive
Rbp6,DRSC10072,,7994,,2821,,inactive
Rbp6,DRSC10073,,8598,,3197,,inactive
Rbp6,DRSC10662,,6588,,2040,,inactive
CG13198,DRSC06323,,8378,,3489,,inactive
Prosbeta6,DRSC11256,,2821,,1301,,inactive
CG3065,DRSC04333,,6652,,1802,,inactive
asl,DRSC12319,,6242,,2993,,inactive

The list goes on (2 carried over from the part before).
Gene,dsRNA,"reporter change call, replicate 1","firefly reporter light, replicate 1","firefly reporter light, replicate 2","Renilla control light, replicate 1","Renilla control light, replicate 2",Outcome
CG3065,DRSC04333,,6652,,1802,,inactive
asl,DRSC12319,,6242,,2993,,inactive
mTor,DRSC02811,,6928,,2032,,inactive
tx,DRSC16931,,2685,4393,1351,1814,inactive
Yif1,DRSC15817,,4282,,2091,,inactive
Ipo9,DRSC16813,,10740,,3293,,inactive
Or45b,DRSC07488,,2433,12433,663,3584,inactive
CG18171,DRSC08524,,4261,,3264,,inactive
CG14220,DRSC19577,,28704,,1058,,inactive
CG10344,DRSC04066,Wg reporter activity raised,6252,8828,578,3600,inactive
CG5098,DRSC06915,,17912,,6439,,inactive
RpS6,DRSC18712,,1728,4250,817,1609,inactive
CG5111,DRSC15717,,17908,,12835,,inactive
Orai,DRSC05684,,19929,,12461,,inactive
Orai,DRSC22061,,4.50e5,4.93e5,2.27e5,1.72e5,inactive
Tsp42Ej,DRSC06113,,6964,,2971,,inactive
CG6839,DRSC10723,,4314,,1498,,inactive
CG1943,DRSC12576,,14144,,2352,,inactive
MFS9,DRSC15560,,2752,8854,1104,2427,inactive
VhaM9.7-a,DRSC08289,,6624,,3297,,inactive
CG3216,DRSC04347,,2404,5190,524,1414,inactive
ImpE2,DRSC08665,,3177,,1283,,inactive
Fign,DRSC00592,,13161,,5223,,inactive
Or59b,DRSC04632,,1861,7853,749,2704,inactive
GC,DRSC08396,,4032,,2004,,inactive
jing,DRSC04923,,3904,6865,817,2560,inactive
jing,DRSC04927,,25593,,11986,,inactive
jing,DRSC05000,,12680,,3336,,inactive
CG30271,DRSC04170,,3832,9857,585,3235,inactive
CG33966,DRSC08256,,4964,,2304,,inactive
Art2,DRSC00627,,2885,10016,768,2085,inactive
CG4629,DRSC00659,,3941,10293,1571,3645,inactive
Duox,DRSC00571,,4308,11036,1088,3051,inactive
Strica,DRSC04920,,3416,9281,1160,3080,inactive
CD98hc,DRSC15453,,14816,,4240,,inactive
CG33631,DRSC12763,,4603,,1857,,inactive
Srpk79D,DRSC11668,,9083,,4081,,inactive
Srpk79D,DRSC11856,,12518,,4330,,inactive
rept,DRSC11388,,14576,,4196,,inactive
CG12935,DRSC06248,,10560,,3104,,inactive
